# No constants are given. Whether binding was seen depends on the method and setting. Binding seen in cells or lysates may run through a third protein. Some results given as binding are weak or reduced against the parent protein; the word gives no strength. Where a sequence is shown, tags or fusion partners need not be part of it.
# Sequences of proteins named here, by UniProt entry; tags and fusion partners are left off.
# UniProt P61081: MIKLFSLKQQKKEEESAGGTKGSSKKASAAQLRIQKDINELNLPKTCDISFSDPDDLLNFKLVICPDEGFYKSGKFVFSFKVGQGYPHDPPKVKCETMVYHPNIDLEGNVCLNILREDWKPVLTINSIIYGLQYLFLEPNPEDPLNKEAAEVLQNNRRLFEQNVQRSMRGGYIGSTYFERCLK
# UniProt P31146: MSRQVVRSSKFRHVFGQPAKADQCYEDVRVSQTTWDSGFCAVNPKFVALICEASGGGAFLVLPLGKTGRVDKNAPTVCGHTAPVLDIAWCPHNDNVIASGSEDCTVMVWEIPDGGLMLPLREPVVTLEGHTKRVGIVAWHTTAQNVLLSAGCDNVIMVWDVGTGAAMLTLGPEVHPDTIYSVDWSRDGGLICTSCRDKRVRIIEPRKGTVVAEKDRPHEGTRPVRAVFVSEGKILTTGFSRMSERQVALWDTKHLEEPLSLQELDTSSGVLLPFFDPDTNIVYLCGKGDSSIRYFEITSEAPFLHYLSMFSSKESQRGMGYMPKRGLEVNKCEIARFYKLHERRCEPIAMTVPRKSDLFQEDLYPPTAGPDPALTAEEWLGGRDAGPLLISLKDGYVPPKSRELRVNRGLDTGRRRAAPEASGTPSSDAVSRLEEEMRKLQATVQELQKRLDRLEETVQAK
# T1: mCherry-hTRIM4-His (human) (UniProt Q9C037)
# T1 sequence: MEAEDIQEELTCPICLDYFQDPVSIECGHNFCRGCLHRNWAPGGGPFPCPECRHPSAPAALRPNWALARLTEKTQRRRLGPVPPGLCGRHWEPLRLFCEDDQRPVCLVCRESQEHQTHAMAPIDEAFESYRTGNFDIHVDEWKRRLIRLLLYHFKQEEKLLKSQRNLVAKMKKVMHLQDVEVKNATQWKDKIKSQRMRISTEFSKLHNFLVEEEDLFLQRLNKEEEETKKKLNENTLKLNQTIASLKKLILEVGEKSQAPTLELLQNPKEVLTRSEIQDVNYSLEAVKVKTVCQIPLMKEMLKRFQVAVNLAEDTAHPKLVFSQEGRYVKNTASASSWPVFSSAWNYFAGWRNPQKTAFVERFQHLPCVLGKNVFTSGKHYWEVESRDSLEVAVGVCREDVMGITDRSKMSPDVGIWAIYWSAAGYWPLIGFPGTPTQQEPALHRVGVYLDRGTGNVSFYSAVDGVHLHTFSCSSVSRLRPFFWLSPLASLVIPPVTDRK
# T2: UBE2F-Myc-His (human) (UniProt Q969M7)
# T2 sequence: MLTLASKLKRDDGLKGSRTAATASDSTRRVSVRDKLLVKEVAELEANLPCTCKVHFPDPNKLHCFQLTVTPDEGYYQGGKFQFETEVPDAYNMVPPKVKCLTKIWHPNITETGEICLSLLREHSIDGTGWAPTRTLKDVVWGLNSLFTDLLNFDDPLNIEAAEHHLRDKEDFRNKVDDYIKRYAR
# B1: mCherry-hTRIM4-His (enzyme, UniProt Q9C037 1-500)
# chain: T1 sequence
# Tests used:
# Assay in all cases: co-IP; HEK293 cells overexpressing the tagged proteins; Co-IP lysis buffer (50 mM Tris-HCl, 5 mM EDTA, 150 mM NaCl, 0.5% Nonidet-P40, 10% glycerol, pH 7.4); M2-Flag, anti-His or anti-Myc beads overnight at 4°C; western blot; for Coro1a with Rab7a also with Trim4 siRNA and 100 nM MLN4924 for 12 h
# [1] = target: T1, mCherry-hTRIM4-His (human)
# [2] = target: hUBE2M tagged with Myc (human) (UniProt P61081)
# UBE2F-Myc-His (human) = target: T2, UBE2F-Myc-His (human)
Molecule,binding [1],binding [2],binding (UBE2F-Myc-His (human))
mCherry-hCoro1a-Flag (from UniProt P31146 1-461),binds,–,–
B1,–,binds weakly,binds
